# Data taken from the supplement of paper PMC8728848.
# This is one part of the list.
# B1: B936 (Bifidobacterium sp) (protein)
# chain: MKNWKKAIALVASAAALVSVAACGPSNAGGSSDSGKKTVGFVAVGPEGGFRTANEKDIQKAFEDAGFDLTYSPTQNNDQQKQIQAFNKFVNDEVDAIILSSTEDSGWDDSLKKAAEAEIPVFTVDRNVDVKDAEAKKAIVAHIGPSNVWCGEQAAEFVNKNFPDGANGFILEGPAGLSVVKDRGTGWGNKVASNVKVLESQSANWSTDEAKTVTAGLLDKYKSDNPQFIFAQNDEMGLGAAQAVDAAGLKGKVKIITIDGTKNALQALVDGDLSYVIEYNPIFGKETAQAVKDYLDGKTVEKDIEIESKTFDAASAKEALDNNTRAY
# What was measured:
# Assay in all cases: glycan array binding signal (z-score within array); higher = stronger binding
# Conditions in all cases: glycan notation: IUPAC condensed, linker removed
# [1] = biological target: GlcNAc(b1-2)Gal(b1-3)GalNAc
# How it was run: (§1)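 Glycan array binding is given as a within-array Z-score, which can be read as non-binding when negative. The arrays, 3228 of them, came from the Consortium for Functional Glycomics database and were retained only where the protein sequence was available. Z-scores were averaged across arrays of the same protein sequence at different concentrations or buffers and across linkers.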
# [2] = biological target: GlcNAc(b1-2)Man(a1-3)[GlcNAc(b1-2)Man(a1-6)]Man(b1-4)GlcNAc(b1-4)GlcNAc
# How it was run: as §1
# [3] = biological target: GlcNAc(b1-2)Man(a1-3)[GlcNAc(b1-2)Man(a1-6)]Man(b1-4)GlcNAc(b1-4)[Fuc(a1-6)]GlcNAc
# How it was run: as §1
# [4] = biological target: GlcNAc(b1-2)Man(a1-3)[GlcNAc(b1-4)][GlcNAc(b1-2)Man(a1-6)]Man(b1-4)GlcNAc(b1-4)GlcNAc
# How it was run: as §1
# [5] = biological target: GlcNAc(b1-2)Man(a1-3)[GlcNAc(b1-4)][GlcNAc(b1-2)Man(a1-6)]Man(b1-4)GlcNAc(b1-4)[Fuc(a1-6)]GlcNAc
# How it was run: as §1
# [6] = biological target: GlcNAc(b1-2)[GlcNAc(b1-4)]Man(a1-3)[GlcNAc(b1-2)Man(a1-6)]Man(b1-4)GlcNAc(b1-4)GlcNAc
# How it was run: as §1
# [7] = biological target: GlcNAc(b1-2)[GlcNAc(b1-4)]Man(a1-3)[GlcNAc(b1-4)][GlcNAc(b1-2)Man(a1-6)]Man(b1-4)GlcNAc(b1-4)GlcNAc
# How it was run: as §1
# [8] = biological target: GlcNAc(b1-2)[GlcNAc(b1-4)]Man(a1-3)[GlcNAc(b1-4)][GlcNAc(b1-2)[GlcNAc(b1-6)]Man(a1-6)]Man(b1-4)GlcNAc(b1-4)GlcNAc
# How it was run: as §1
# [9] = biological target: GlcNAc(b1-2)[GlcNAc(b1-4)]Man(a1-3)[GlcNAc(b1-4)][GlcNAc(b1-2)[GlcNAc(b1-6)]Man(a1-6)]Man(b1-4)GlcNAc(b1-4)[Fuc(a1-6)]GlcNAc
# How it was run: as §1
# [10] = biological target: GlcNAc(b1-2)[GlcNAc(b1-6)]Man(a1-6)[GlcNAc(b1-2)Man(a1-3)]Man(b1-4)GlcNAc(b1-4)GlcNAc
# How it was run: as §1
# [11] = biological target: GlcNAc(b1-2)[GlcNAc(b1-6)]Man(a1-6)[GlcNAc(b1-2)Man(a1-3)]Man(b1-4)GlcNAc(b1-4)[Fuc(a1-6)]GlcNAc
# How it was run: as §1
# [12] = biological target: GlcNAc(b1-2)[GlcNAc(b1-6)]Man(a1-6)[GlcNAc(b1-4)][GlcNAc(b1-2)Man(a1-3)]Man(b1-4)GlcNAc(b1-4)GlcNAc
# How it was run: as §1
# GlcNAc(b1-3)Fuc = biological target: GlcNAc(b1-3)Fuc
# How it was run: as §1
# GlcNAc(b1-3)Gal = biological target: GlcNAc(b1-3)Gal
# How it was run: as §1
# [13] = biological target: GlcNAc(b1-3)Gal(b1-3)GalNAc
# How it was run: as §1
# GlcNAc(b1-3)Gal(b1-4)Glc = biological target: GlcNAc(b1-3)Gal(b1-4)Glc
# How it was run: as §1
# [14] = biological target: GlcNAc(b1-3)Gal(b1-4)GlcNAc
# How it was run: as §1
# [15] = biological target: GlcNAc(b1-3)Gal(b1-4)GlcNAc(b1-2)Man(a1-3)[GlcNAc(b1-3)Gal(b1-4)GlcNAc(b1-2)Man(a1-6)]Man(b1-4)GlcNAc(b1-4)GlcNAc
# How it was run: as §1
# [16] = biological target: GlcNAc(b1-3)Gal(b1-4)GlcNAc(b1-2)Man(a1-3)[GlcNAc(b1-3)Gal(b1-4)GlcNAc(b1-2)Man(a1-6)]Man(b1-4)GlcNAc(b1-4)[Fuc(a1-6)]GlcNAc
# How it was run: as §1
# [17] = biological target: GlcNAc(b1-3)Gal(b1-4)GlcNAc(b1-2)[GlcNAc(b1-3)Gal(b1-4)GlcNAc(b1-6)]Man(a1-6)[GlcNAc(b1-3)Gal(b1-4)GlcNAc(b1-2)Man(a1-3)]Man(b1-4)GlcNAc(b1-4)GlcNAc
# How it was run: as §1
# [18] = biological target: GlcNAc(b1-3)Gal(b1-4)GlcNAc(b1-3)Gal(b1-4)GlcNAc
# How it was run: as §1
# [19] = biological target: GlcNAc(b1-3)Gal(b1-4)GlcNAc(b1-3)Gal(b1-4)GlcNAc(b1-2)Man(a1-3)[GlcNAc(b1-3)Gal(b1-4)GlcNAc(b1-3)Gal(b1-4)GlcNAc(b1-2)Man(a1-6)]Man(b1-4)GlcNAc(b1-4)GlcNAc
# How it was run: as §1
# [20] = biological target: GlcNAc(b1-3)Gal(b1-4)GlcNAc(b1-3)Gal(b1-4)GlcNAc(b1-2)Man(a1-3)[GlcNAc(b1-3)Gal(b1-4)GlcNAc(b1-3)Gal(b1-4)GlcNAc(b1-2)Man(a1-6)]Man(b1-4)GlcNAc(b1-4)[Fuc(a1-6)]GlcNAc
# How it was run: as §1
# [21] = biological target: GlcNAc(b1-3)Gal(b1-4)GlcNAc(b1-3)Gal(b1-4)GlcNAc(b1-2)[GlcNAc(b1-3)Gal(b1-4)GlcNAc(b1-3)Gal(b1-4)GlcNAc(b1-6)]Man(a1-6)[GlcNAc(b1-3)Gal(b1-4)GlcNAc(b1-3)Gal(b1-4)GlcNAc(b1-2)Man(a1-3)]Man(b1-4)GlcNAc(b1-4)[Fuc(a1-6)]GlcNAc
# How it was run: as §1
# [22] = biological target: GlcNAc(b1-3)Gal(b1-4)GlcNAc(b1-3)Gal(b1-4)GlcNAc(b1-3)Gal(b1-4)GlcNAc(b1-2)Man(a1-3)[GlcNAc(b1-3)Gal(b1-4)GlcNAc(b1-3)Gal(b1-4)GlcNAc(b1-3)Gal(b1-4)GlcNAc(b1-2)Man(a1-6)]Man(b1-4)GlcNAc(b1-4)GlcNAc
# How it was run: as §1
# [23] = biological target: GlcNAc(b1-3)Gal(b1-4)GlcNAc(b1-3)Gal(b1-4)GlcNAc(b1-3)Gal(b1-4)GlcNAc(b1-2)Man(a1-3)[GlcNAc(b1-3)Gal(b1-4)GlcNAc(b1-3)Gal(b1-4)GlcNAc(b1-3)Gal(b1-4)GlcNAc(b1-2)Man(a1-6)]Man(b1-4)GlcNAc(b1-4)[Fuc(a1-6)]GlcNAc
# How it was run: as §1
# [24] = biological target: GlcNAc(b1-3)Gal(b1-4)GlcNAc(b1-3)Gal(b1-4)GlcNAc(b1-3)Gal(b1-4)GlcNAc(b1-2)[GlcNAc(b1-3)Gal(b1-4)GlcNAc(b1-3)Gal(b1-4)GlcNAc(b1-3)Gal(b1-4)GlcNAc(b1-6)]Man(a1-6)[GlcNAc(b1-3)Gal(b1-4)GlcNAc(b1-3)Gal(b1-4)GlcNAc(b1-3)Gal(b1-4)GlcNAc(b1-2)Man(a1-3)]Man(b1-4)GlcNAc(b1-4)[Fuc(a1-6)]GlcNAc
# How it was run: as §1
# [25] = biological target: GlcNAc(b1-3)Gal(b1-4)GlcNAc(b1-3)Gal(b1-4)GlcNAc(b1-3)Gal(b1-4)GlcNAc(b1-3)Gal(b1-4)GlcNAc(b1-2)Man(a1-3)[GlcNAc(b1-3)Gal(b1-4)GlcNAc(b1-3)Gal(b1-4)GlcNAc(b1-3)Gal(b1-4)GlcNAc(b1-3)Gal(b1-4)GlcNAc(b1-2)Man(a1-6)]Man(b1-4)GlcNAc(b1-4)GlcNAc
# How it was run: as §1
# [26] = biological target: GlcNAc(b1-3)Gal(b1-4)GlcNAc(b1-3)Gal(b1-4)GlcNAc(b1-3)Gal(b1-4)GlcNAc(b1-3)Gal(b1-4)GlcNAc(b1-2)Man(a1-3)[GlcNAc(b1-3)Gal(b1-4)GlcNAc(b1-3)Gal(b1-4)GlcNAc(b1-3)Gal(b1-4)GlcNAc(b1-3)Gal(b1-4)GlcNAc(b1-2)Man(a1-6)]Man(b1-4)GlcNAc(b1-4)[Fuc(a1-6)]GlcNAc
# How it was run: as §1
# [27] = biological target: GlcNAc(b1-3)Gal(b1-4)GlcNAc(b1-3)Gal(b1-4)GlcNAc(b1-3)Gal(b1-4)GlcNAc(b1-3)Gal(b1-4)GlcNAc(b1-2)[GlcNAc(b1-3)Gal(b1-4)GlcNAc(b1-3)Gal(b1-4)GlcNAc(b1-3)Gal(b1-4)GlcNAc(b1-3)Gal(b1-4)GlcNAc(b1-6)]Man(a1-6)[GlcNAc(b1-3)Gal(b1-4)GlcNAc(b1-3)Gal(b1-4)GlcNAc(b1-3)Gal(b1-4)GlcNAc(b1-3)Gal(b1-4)GlcNAc(b1-2)Man(a1-3)]Man(b1-4)GlcNAc(b1-4)[Fuc(a1-6)]GlcNAc
# How it was run: as §1
# [28] = biological target: GlcNAc(b1-3)Gal(b1-4)GlcNAc(b1-3)Gal(b1-4)GlcNAc(b1-3)GalNAc
# How it was run: as §1
# [29] = biological target: GlcNAc(b1-3)Gal(b1-4)GlcNAc(b1-3)GalNAc
# How it was run: as §1
# [30] = biological target: GlcNAc(b1-3)Gal(b1-4)GlcNAc(b1-3)[GlcNAc(b1-3)Gal(b1-4)GlcNAc(b1-3)]GalNAc
# How it was run: as §1
# [31] = biological target: GlcNAc(b1-3)Gal(b1-4)GlcNAc(b1-6)[Gal(b1-3)]GalNAc
# How it was run: as §1
# [32] = biological target: GlcNAc(b1-3)Gal(b1-4)GlcNAc(b1-6)[GlcNAc(b1-3)Gal(b1-3)]GalNAc
# How it was run: as §1
# [33] = biological target: GlcNAc(b1-3)Gal(b1-4)GlcNAc(b1-6)[GlcNAc(b1-3)]Gal(b1-4)GlcNAc
# How it was run: as §1
# GlcNAc(b1-3)GalNAc = biological target: GlcNAc(b1-3)GalNAc
# How it was run: as §1
binder,measurement,setting,value
B1,glycan array binding signal (z-score),[1],-0.66
same,glycan array binding signal (z-score),[2],-0.225
same,glycan array binding signal (z-score),[3],-0.373
same,glycan array binding signal (z-score),[4],-0.222
same,glycan array binding signal (z-score),[5],0.068
same,glycan array binding signal (z-score),[6],-0.377
same,glycan array binding signal (z-score),[7],0.042
same,glycan array binding signal (z-score),[8],-0.472
same,glycan array binding signal (z-score),[9],0.689
same,glycan array binding signal (z-score),[10],-0.413
same,glycan array binding signal (z-score),[11],1.03
same,glycan array binding signal (z-score),[12],-0.739
same,glycan array binding signal (z-score),GlcNAc(b1-3)Fuc,0.368
same,glycan array binding signal (z-score),GlcNAc(b1-3)Gal,-0.282
same,glycan array binding signal (z-score),[13],0.418
same,glycan array binding signal (z-score),GlcNAc(b1-3)Gal(b1-4)Glc,-0.236
same,glycan array binding signal (z-score),[14],-0.199
same,glycan array binding signal (z-score),[15],0.362
same,glycan array binding signal (z-score),[16],0.054
same,glycan array binding signal (z-score),[17],0.142
same,glycan array binding signal (z-score),[18],-1.04
same,glycan array binding signal (z-score),[19],0.824
same,glycan array binding signal (z-score),[20],-0.081
same,glycan array binding signal (z-score),[21],1.49
same,glycan array binding signal (z-score),[22],0.197
same,glycan array binding signal (z-score),[23],0.684
same,glycan array binding signal (z-score),[24],-0.381
same,glycan array binding signal (z-score),[25],-0.371
same,glycan array binding signal (z-score),[26],-0.517
same,glycan array binding signal (z-score),[27],-0.109
same,glycan array binding signal (z-score),[28],-0.4
same,glycan array binding signal (z-score),[29],-0.806
same,glycan array binding signal (z-score),[30],-0.354
same,glycan array binding signal (z-score),[31],0.88
same,glycan array binding signal (z-score),[32],-0.461
same,glycan array binding signal (z-score),[33],-0.445
same,glycan array binding signal (z-score),GlcNAc(b1-3)GalNAc,-0.602

# Nothing new here: an excerpt of the list.
binder,measurement,setting,value
B1,glycan array binding signal (z-score),[10],-0.413
same,glycan array binding signal (z-score),[11],1.03
same,glycan array binding signal (z-score),[12],-0.739
same,glycan array binding signal (z-score),GlcNAc(b1-3)Fuc,0.368
same,glycan array binding signal (z-score),GlcNAc(b1-3)Gal,-0.282
same,glycan array binding signal (z-score),[13],0.418
same,glycan array binding signal (z-score),GlcNAc(b1-3)Gal(b1-4)Glc,-0.236
same,glycan array binding signal (z-score),[14],-0.199
same,glycan array binding signal (z-score),[15],0.362
